Measurements reported in the supplement of paper PMC10849652.
The other results are listed elsewhere or left out.

Amino acid sequences for entries named in this document (tags omitted). A change or cut given only in a name is not applied to a line headed by its entry.
UniProt Q9HAN9, whole entry, looked up: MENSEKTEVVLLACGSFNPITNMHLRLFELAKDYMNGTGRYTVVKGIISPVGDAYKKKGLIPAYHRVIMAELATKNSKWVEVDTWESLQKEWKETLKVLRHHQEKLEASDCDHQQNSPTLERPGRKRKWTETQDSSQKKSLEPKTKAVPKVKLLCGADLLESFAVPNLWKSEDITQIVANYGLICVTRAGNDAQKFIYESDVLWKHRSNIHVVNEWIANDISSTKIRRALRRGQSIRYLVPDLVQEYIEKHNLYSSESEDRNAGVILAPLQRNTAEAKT
UniProt O00567: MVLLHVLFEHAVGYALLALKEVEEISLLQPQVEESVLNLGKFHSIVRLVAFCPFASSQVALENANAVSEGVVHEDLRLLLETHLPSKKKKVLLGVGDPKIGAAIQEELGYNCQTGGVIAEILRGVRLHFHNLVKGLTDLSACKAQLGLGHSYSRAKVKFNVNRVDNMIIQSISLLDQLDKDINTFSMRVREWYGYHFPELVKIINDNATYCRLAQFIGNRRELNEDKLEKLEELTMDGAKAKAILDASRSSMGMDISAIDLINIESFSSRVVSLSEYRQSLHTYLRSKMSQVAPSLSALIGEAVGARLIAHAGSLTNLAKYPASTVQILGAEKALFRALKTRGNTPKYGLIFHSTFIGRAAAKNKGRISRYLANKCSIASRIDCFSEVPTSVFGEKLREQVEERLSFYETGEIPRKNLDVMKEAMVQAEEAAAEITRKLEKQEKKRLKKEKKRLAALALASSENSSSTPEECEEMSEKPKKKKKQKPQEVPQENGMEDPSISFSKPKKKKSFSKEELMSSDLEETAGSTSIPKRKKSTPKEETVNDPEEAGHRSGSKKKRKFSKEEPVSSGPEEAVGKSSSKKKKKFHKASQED
UniProt Q9Y2X3: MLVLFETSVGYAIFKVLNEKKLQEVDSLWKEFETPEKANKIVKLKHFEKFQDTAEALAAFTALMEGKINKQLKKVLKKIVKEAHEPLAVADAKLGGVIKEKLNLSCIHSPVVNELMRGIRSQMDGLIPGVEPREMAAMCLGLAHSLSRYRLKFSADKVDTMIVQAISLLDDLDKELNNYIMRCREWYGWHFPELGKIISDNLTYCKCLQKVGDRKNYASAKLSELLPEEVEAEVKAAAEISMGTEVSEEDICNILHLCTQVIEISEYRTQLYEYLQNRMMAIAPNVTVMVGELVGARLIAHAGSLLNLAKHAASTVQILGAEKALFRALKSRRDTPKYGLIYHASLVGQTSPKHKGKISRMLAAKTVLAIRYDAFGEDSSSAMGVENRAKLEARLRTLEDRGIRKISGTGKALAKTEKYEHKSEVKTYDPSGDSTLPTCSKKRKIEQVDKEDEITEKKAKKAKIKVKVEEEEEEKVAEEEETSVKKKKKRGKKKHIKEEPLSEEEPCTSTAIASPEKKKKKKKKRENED
UniProt Q9Y5B8, whole entry, looked up: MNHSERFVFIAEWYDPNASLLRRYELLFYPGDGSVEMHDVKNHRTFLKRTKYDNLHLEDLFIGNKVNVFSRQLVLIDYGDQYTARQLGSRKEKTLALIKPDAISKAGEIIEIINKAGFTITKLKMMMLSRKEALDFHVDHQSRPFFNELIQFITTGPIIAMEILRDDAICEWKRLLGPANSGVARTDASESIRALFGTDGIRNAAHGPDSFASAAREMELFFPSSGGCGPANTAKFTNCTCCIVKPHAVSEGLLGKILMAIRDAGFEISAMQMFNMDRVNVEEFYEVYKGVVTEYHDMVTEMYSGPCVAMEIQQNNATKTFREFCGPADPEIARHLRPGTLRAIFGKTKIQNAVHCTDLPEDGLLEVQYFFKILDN
UniProt Q96P11: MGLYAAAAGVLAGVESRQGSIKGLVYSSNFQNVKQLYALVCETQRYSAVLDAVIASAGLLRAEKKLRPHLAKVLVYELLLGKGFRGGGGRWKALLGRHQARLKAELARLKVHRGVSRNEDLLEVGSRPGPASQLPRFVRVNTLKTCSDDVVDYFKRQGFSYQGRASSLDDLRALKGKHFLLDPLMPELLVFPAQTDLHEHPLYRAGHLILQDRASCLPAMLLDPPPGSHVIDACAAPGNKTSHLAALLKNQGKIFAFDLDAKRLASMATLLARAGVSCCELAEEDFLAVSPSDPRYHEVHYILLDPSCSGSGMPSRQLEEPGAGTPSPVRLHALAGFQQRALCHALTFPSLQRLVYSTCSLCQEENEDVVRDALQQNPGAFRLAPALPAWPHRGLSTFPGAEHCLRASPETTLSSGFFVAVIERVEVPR
UniProt Q15738: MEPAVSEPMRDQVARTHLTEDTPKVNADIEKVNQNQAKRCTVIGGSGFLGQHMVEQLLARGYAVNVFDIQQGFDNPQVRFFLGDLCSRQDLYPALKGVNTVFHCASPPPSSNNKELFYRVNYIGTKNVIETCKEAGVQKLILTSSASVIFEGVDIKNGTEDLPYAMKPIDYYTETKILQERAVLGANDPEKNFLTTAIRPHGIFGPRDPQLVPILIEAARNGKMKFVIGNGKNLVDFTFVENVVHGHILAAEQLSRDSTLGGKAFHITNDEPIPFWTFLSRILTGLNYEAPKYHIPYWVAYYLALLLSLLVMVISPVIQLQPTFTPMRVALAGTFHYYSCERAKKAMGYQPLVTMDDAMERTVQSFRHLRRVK
UniProt Q9NZJ9: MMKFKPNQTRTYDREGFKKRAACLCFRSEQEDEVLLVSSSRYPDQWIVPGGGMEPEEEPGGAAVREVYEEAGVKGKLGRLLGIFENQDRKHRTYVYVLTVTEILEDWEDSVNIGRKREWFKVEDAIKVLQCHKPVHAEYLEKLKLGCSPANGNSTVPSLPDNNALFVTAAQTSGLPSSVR
UniProt Q8TEA1: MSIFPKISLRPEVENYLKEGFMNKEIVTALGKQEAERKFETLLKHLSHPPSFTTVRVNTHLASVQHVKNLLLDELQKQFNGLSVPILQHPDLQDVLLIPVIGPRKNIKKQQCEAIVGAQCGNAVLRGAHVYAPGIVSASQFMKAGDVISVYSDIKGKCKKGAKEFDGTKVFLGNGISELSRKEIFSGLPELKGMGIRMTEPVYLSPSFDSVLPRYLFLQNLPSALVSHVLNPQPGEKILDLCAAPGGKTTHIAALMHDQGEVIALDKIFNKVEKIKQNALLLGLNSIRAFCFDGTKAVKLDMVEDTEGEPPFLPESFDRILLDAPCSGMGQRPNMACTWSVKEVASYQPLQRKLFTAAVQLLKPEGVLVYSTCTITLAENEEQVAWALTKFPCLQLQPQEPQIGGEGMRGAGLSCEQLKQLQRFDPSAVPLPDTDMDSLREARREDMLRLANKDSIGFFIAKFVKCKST
UniProt Q96DE0: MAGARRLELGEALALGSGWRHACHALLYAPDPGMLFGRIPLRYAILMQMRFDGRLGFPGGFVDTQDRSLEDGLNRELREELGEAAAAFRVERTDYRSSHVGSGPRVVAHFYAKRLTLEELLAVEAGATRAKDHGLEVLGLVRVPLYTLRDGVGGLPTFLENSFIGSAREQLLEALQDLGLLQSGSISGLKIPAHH
UniProt P49757: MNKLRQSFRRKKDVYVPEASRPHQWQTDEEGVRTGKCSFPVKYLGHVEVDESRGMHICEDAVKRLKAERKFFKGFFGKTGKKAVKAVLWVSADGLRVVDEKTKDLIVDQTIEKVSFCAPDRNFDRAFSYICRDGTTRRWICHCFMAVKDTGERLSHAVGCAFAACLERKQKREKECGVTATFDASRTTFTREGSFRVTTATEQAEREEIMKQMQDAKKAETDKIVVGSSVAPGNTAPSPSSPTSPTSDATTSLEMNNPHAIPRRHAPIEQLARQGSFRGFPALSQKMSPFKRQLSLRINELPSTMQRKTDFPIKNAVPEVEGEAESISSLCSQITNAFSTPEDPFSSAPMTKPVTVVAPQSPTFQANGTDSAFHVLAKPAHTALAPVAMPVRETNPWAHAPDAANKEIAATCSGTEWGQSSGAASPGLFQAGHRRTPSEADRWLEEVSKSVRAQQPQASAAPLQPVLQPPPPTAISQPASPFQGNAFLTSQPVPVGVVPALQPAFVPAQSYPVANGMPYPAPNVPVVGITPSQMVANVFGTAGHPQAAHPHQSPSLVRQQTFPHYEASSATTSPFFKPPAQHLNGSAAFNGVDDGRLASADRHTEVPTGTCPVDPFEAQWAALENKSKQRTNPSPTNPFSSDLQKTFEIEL
UniProt Q8IVD9: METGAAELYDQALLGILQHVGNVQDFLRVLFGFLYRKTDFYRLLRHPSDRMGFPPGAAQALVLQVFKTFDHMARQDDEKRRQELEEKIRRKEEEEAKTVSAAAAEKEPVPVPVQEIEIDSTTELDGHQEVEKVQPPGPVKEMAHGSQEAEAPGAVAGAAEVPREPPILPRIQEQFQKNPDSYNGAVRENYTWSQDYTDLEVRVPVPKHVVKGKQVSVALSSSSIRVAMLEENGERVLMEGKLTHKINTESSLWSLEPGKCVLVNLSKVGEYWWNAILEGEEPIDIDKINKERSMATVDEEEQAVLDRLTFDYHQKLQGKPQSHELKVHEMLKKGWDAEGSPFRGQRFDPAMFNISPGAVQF
UniProt Q96MF7: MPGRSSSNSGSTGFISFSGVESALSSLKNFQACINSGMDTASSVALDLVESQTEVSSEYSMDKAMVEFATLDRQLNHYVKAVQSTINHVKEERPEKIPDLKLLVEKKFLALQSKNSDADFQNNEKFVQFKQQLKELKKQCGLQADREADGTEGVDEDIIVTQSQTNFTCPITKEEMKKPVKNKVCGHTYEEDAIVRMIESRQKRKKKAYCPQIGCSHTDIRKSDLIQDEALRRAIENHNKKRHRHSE
UniProt O75414: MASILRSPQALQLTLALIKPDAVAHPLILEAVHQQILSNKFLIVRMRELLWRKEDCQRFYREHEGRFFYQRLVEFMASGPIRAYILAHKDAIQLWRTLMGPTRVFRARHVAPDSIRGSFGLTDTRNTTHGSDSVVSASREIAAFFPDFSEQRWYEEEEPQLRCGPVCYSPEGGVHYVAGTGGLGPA
UniProt P06748, whole entry, looked up: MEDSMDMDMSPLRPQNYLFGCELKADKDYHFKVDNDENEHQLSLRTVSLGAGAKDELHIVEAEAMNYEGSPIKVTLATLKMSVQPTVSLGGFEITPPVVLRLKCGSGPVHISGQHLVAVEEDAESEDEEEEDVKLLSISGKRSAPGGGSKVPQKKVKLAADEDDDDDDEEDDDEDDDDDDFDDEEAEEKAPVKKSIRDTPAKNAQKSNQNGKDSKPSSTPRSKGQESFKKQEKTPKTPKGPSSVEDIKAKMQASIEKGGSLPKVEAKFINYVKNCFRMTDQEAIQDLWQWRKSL
UniProt P0C024: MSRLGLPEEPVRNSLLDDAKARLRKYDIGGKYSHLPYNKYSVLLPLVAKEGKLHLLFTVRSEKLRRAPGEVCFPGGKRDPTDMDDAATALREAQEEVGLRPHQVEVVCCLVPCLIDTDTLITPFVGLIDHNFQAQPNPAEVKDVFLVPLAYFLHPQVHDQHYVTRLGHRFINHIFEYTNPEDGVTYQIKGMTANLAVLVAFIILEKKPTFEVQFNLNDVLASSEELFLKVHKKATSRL
UniProt Q8WUM0: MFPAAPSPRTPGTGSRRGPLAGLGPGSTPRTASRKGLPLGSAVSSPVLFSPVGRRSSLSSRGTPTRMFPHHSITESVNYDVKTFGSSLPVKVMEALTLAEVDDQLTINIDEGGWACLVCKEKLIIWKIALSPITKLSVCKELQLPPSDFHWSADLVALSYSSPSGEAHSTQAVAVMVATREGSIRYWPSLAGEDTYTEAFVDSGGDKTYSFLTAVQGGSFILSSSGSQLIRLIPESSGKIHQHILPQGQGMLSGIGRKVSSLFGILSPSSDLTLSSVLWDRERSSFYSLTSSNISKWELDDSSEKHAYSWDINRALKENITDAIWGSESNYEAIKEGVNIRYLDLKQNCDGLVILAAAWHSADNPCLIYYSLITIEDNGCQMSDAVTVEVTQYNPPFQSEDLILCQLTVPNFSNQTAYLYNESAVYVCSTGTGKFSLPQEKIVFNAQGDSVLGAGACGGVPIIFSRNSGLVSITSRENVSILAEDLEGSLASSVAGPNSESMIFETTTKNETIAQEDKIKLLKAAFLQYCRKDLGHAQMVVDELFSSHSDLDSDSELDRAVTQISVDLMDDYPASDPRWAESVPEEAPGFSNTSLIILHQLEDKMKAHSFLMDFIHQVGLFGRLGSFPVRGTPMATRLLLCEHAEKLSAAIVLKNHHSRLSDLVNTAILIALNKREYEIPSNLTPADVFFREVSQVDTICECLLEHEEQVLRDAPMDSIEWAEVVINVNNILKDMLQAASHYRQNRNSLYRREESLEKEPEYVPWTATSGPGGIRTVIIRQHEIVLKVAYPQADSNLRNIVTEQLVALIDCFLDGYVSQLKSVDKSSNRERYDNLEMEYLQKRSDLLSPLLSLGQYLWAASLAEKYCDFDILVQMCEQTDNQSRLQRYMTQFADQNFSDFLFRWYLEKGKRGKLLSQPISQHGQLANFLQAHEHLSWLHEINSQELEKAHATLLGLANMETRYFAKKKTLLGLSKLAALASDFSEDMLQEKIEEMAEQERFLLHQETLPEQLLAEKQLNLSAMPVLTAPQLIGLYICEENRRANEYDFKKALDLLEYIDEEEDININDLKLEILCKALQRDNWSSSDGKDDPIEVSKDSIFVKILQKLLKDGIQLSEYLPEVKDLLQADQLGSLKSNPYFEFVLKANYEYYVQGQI

The targets below were run with C[C@H](Nc1ncnc2nc[nH]c12)c1cc2cccc(Cl)c2c(=O)n1-c1ccccc1 [duvelisib] (assay: log2 fold change, soluble protein after heating vs DMSO (PISA); higher = thermal stabilisation; K562 lysate, 10 uM; active = over 0.2 and 3.5 SD of the protein, either way, in both replicates (recomputed)).
Summary of the method: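 Following dounce homogenisation of K562 pellets in PBS pH 7.4 with 1 mM MgCl2, crude extract at 1 mg/mL protein was incubated for 30 min with 10 μM compound. Aliquots were then heated for 3 min over 48°C-58°C and pooled, NP-40 was added to 0.5% at 4°C, and soluble protein was recovered as the supernatant at 21,000xg for 90 min. Channel-sum-equalised TMTpro 16plex LC-MS/MS quantified this protein. Each value, from duplicates, is a log-two fold change in thermal stability relative to solvent controls.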

log2 fold change, inactive:
NMNAT1 (UniProt Q9HAN9) 0.007
NOP56 (UniProt O00567) 0.006
NOP58 (UniProt Q9Y2X3) -0.002
NSMAF (UniProt Q92636) 0.057
NME7 (UniProt Q9Y5B8) 0.018
NSUN5 isoform 2 (UniProt Q96P11) -0.008
NOLC1 isoform 2 (UniProt Q14978) 0.008
NOP14 (UniProt P78316) -0.098
NSDHL (UniProt Q15738) 0.047
NUDT4 (UniProt Q9NZJ9) -0.039
NSMCE3 (UniProt Q96MG7) -0.043
NSUN6 (UniProt Q8TEA1) -0.014
NUDT16 (UniProt Q96DE0) 0.017
NUMB (UniProt P49757) 0.029
NSFL1C isoform 5 (UniProt Q9UNZ2) -0.006
NUDCD3 (UniProt Q8IVD9) -0.025
NSMCE2 (UniProt Q96MF7) -0.026
NME6 (UniProt O75414) -0.014
NOSIP (UniProt Q9Y314) -0.004
NT5C3A (UniProt Q9H0P0) -0.028
NPM1 (UniProt P06748) 0.004
NUDT7 (UniProt P0C024) -0.012
NUP133 (UniProt Q8WUM0) -0.01

Reprinted at random: two records from the list
log2 fold change, inactive:
NME6 (UniProt O75414) -0.014
NOP14 (UniProt P78316) -0.098
